One data set has as its system Hsh49 + Cus1. The experiment in a line: UV crosslinking MS. The note with it: 254 nm, 10 min, protein:RNA 4:1; NELF-TAR complex: 20 mM HEPES/NaOH pH 7.4, 150 mM NaCl, 10% glycerol, 1 mM DTT, mixed 30 min at 4 C; anisotropy conditions only by reference [29]; recombinant protein.
In another data set the target is T1, spDnmt2 (UniProt P40999).
T1 sequence (looked up, limits assumed): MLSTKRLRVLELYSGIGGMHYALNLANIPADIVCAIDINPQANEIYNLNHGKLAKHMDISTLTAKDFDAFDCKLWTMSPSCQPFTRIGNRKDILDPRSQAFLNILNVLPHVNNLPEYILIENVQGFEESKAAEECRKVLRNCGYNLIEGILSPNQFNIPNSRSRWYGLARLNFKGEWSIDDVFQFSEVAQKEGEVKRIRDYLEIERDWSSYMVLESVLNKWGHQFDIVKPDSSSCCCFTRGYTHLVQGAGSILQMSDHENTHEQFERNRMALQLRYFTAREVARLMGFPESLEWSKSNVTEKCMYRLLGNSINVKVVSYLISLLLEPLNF
The experiment in a line: UV crosslinking MS. The note with it: 254 nm, 10 min; unmodified (in vitro transcript); NELF-TAR complex: 20 mM HEPES/NaOH pH 7.4, 150 mM NaCl, 10% glycerol, 1 mM DTT, mixed 30 min at 4 C; anisotropy conditions only by reference [29]; recombinant protein; protein details: GST removed by PreScission (pGEX 6P-3).

For at least one entry, the source does not settle the construct or the ends of the probe. For some assays here: At least one verdict rests on a figure or table, not on a statement of the authors. For some assays here: Where a protein sequence is shown, tags need not be part of it.

Regarding “GGACGAAUCUCUUUGCCUUUUGGCUUAGAUCAAGUGUAGUAUCUGUUCUUCUAG [U2 snRNA nt 1-47 (U2-47Nt)]”, the binding result with Hsh49 + Cus1 is given as “binds”.

Take “GGGUCUCCUUUAGUAUAGGGGUAGUACACAAGCCUGUCACGCUUGCAGCCCGGGUUCGAAUCCCGGAGGGAGAG [sptRNA-Asp]”: the binding result in the data set with spDnmt2 is “binds”.

For the origin of these results see paper PMC12359043, “Chemical crosslinking extends and complements UV crosslinking in analysis of RNA/DNA nucleic acid–protein interaction sites by mass spectrometry”.
